{"source": "paper PMC12785453", "about": "“Oral Fluid Concentrations and Pharmacological Effects of Clephedrone and Methylone in Humans” (International Journal of Molecular Sciences, 2025)", "key": {"healthy volunteers [1]": {"system": "healthy volunteers", "experiment": "Subjective effects, visual analog scales (VAS), clephedrone study", "format": "in vivo, humans", "details": "time points vs baseline; 100 or 150 mg oral, n=8", "description": "(§1) The study evaluating the acute effects of clephedrone was designed as a non-controlled, prospective, observational, and naturalistic study. The procedures and evaluations included in this study have been described in previous studies evaluating other synthetic cathinones (mephedrone, methylone, alpha-PVP, NEP, HEXEN), phenethylamines (2C-B and 2C-E), or synthetic cannabinoids (JWH-122, JWH-210, UR-144).\n(§2) This study consisted of one experimental session in which participants (N = 8; 6 women, 2 men) selected their oral dose of clephedrone based on their drug use experience and preferences. According to their dose selection, 3 women and 1 man ingested 100 mg of clephedrone, while the remaining 3 women and 1 man opted for a higher dose of 150 mg. […] Participants were recruited by word of mouth by the harm reduction organization Energy Control in Barcelona (Associació Benestar i Desenvolupament, ABD).\n(§3) Subjective effects were evaluated with visual analog scales (VAS), the short form of the Addiction Research Center Inventory (ARCI), and the Evaluation of Subjective Effects of Substances with Abuse Potential questionnaire (VESSPA-SSE). In addition, the Sensitivity to Drug Reinforcement Questionnaire (SDRQ) and a pharmacological identification class questionnaire were used in the controlled study administering methylone. […]"}, "healthy volunteers [2]": {"system": "healthy volunteers", "experiment": "Subjective effects, VESSPA-SSE, clephedrone study", "format": "in vivo, humans", "details": "time points vs baseline; 100 or 150 mg oral, n=8", "description": "as §1, §2, §3"}}}
{"molecule": "CNC(C)C(=O)c1ccc(Cl)cc1", "note": "(centres unmarked) [Clephedrone, 4-chloromethcathinone]", "values": [{"measurement": "VAS I want to be with other people Dunnett’s Test", "setting": "healthy volunteers [1]", "value": "h (“h” p < 0.05, “H” (times 0–4 h))"}, {"measurement": "VESSPA S Dunnett’s Test", "setting": "healthy volunteers [2]", "value": "i (“i” p < 0.05, “I” (times 0–5 h))"}]}
